PubChem BioAssay AID493246 | Drosophila RNAi Screening Center | 2011
In all, the deposit lists about 21,000 reagents; this is a random part of those with a known target gene and a result. In the full data, 429 (2%) were called active. 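Values are raw and not normalised between plates; calls rest on per-plate z-scores that were not deposited.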 Names joined by + are all predicted targets of the reagent. No sequences are given here. Not given: the amount of reagent, the time to read-out.

Screen: 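Genes fly cells need to grow and stay alive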 (primary screen)
Cell system: Drosophila Kc and S2R+ cells
Reagent: long dsRNA against Drosophila genes
Measured: 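Cell number per well after knock-down, printed as raw plate values; calls were based on per-plate z-scores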
Reading the numbers: Kc cell number and S2R+ cell number: higher = more cells remaining
Call rule: 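Counted as a hit if cell number falls by a z-score of at least 3 within its plate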

The first 8 records, ahead of the listing:
no.	target	PubChem SID	Kc cell number, rep 1	Kc cell number, rep 2	S2R+ cell number, rep 1	S2R+ cell number, rep 2	Call
1	CG13039	SID104189712	1.54e6	1.60e6	1.39e6	1.56e6	inactive
2	RpL34a	SID104195756	1.77e6	1.64e6	1.02e6	1.13e6	inactive
3	CG42588	SID104189612	1.51e6	1.43e6	1.32e6	1.45e6	inactive
4	Ir92a	SID104194903	1.41e6	1.42e6	1.04e6	1.11e6	inactive
5	CG9067	SID104187120	1.51e6	1.53e6	1.16e6	1.33e6	inactive
6	RagA-B	SID104194242	1.62e6	1.74e6	1.42e6	1.48e6	inactive
7	CG5646	SID104195645	4.99e5		7.99e5		inactive
8	Obp19b	SID104200328	1.60e6	1.57e6	1.11e6	1.19e6	inactive

The listing, from the first entry:
no.	target	PubChem SID	Kc cell number, rep 1	Kc cell number, rep 2	S2R+ cell number, rep 1	S2R+ cell number, rep 2	Call
1	CG13039	SID104189712	1.54e6	1.60e6	1.39e6	1.56e6	inactive
2	RpL34a	SID104195756	1.77e6	1.64e6	1.02e6	1.13e6	inactive
3	CG42588	SID104189612	1.51e6	1.43e6	1.32e6	1.45e6	inactive
4	Ir92a	SID104194903	1.41e6	1.42e6	1.04e6	1.11e6	inactive
5	CG9067	SID104187120	1.51e6	1.53e6	1.16e6	1.33e6	inactive
6	RagA-B	SID104194242	1.62e6	1.74e6	1.42e6	1.48e6	inactive
7	CG5646	SID104195645	4.99e5		7.99e5		inactive
8	Obp19b	SID104200328	1.60e6	1.57e6	1.11e6	1.19e6	inactive
9	Cpr47Ea	SID104187125	1.53e6	1.54e6	1.23e6	1.37e6	inactive
10	yellow-e3	SID104194962	1.47e6	1.58e6	1.23e6	1.32e6	inactive
11	CG34266	SID104188115	1.18e6	1.17e6	1.09e6	1.14e6	inactive
12	CG7453	SID104199838	1.56e6	1.60e6	1.11e6	1.21e6	inactive
13	CG32712	SID104197612	5.28e5		8.94e5		inactive
14	yellow-f	SID104195140	1.34e6	1.18e6	1.02e6	1.10e6	inactive
15	Vps2	SID104194678	4.68e5		7.07e5		inactive
16	thoc5	SID104184119	1.35e6	1.43e6	1.11e6	1.12e6	inactive
17	CG12699	SID104185954	1.34e6	1.34e6	1.03e6	9.85e5	inactive
18	CG7655	SID104196067	1.63e6	1.76e6	1.20e6	1.25e6	inactive
19	CG13248	SID104191488	1.37e6	1.44e6	1.31e6	1.38e6	inactive
20	hts	SID104187421	1.44e6	1.53e6	1.15e6	1.21e6	inactive
21	CG13640	SID104194431	1.56e6	1.55e6	1.01e6	1.07e6	inactive
22	CG14088	SID104189884	1.53e6	1.91e6	1.25e6	1.32e6	inactive
23	Ype	SID104200093	6.28e5		9.81e5		inactive
24	CG17211	SID104182379	1.54e6	1.65e6	1.20e6	1.31e6	inactive
25	CG4213	SID104180433	1.64e6	1.61e6	1.16e6	1.34e6	inactive
26	Cyp4s3	SID104200033	1.59e6	1.53e6	1.16e6	1.28e6	inactive
27	RasGAP1	SID104190964	1.25e6	1.28e6	1.34e6	1.44e6	inactive
28	CG11380	SID104198424	1.37e6	1.47e6	8.25e5	9.32e5	inactive
29	Rbsn-5	SID104182886	1.38e6	1.37e6	7.16e5	9.23e5	inactive
30	CG7094	SID104182797	1.49e6	1.52e6	1.29e6	1.46e6	inactive
31	zetaCOP	SID104191204	1.59e6	1.61e6	8.80e5	1.01e6	inactive
32	CG32170	SID104189244	1.69e6	1.78e6	1.21e6	1.34e6	inactive
33	Tsp29Fb	SID104183025	1.55e6	1.57e6	1.09e6	1.20e6	inactive
34	ppk16	SID104182528	1.54e6	1.58e6	1.23e6	1.46e6	inactive
35	CR42546	SID104183503	1.49e6	1.50e6	1.25e6	3.01e5	inactive
36	Sras	SID104191079	1.25e6	1.55e6	1.19e6	1.24e6	inactive
37	CR14798	SID104197748	1.76e6	1.79e6	1.08e6	1.24e6	inactive
38	Damm	SID104187185	1.70e6	1.79e6	1.41e6	1.50e6	inactive
39	CR31822	SID104181302	1.47e6	1.53e6	9.36e5	1.15e6	inactive
40	CG31871	SID104182359	1.61e6	1.65e6	1.20e6	1.46e6	inactive
41	CG31871	SID104182363	1.60e6	1.61e6	1.25e6	1.42e6	inactive
42	scu	SID104200161	1.42e6	1.38e6	1.07e6	1.09e6	inactive
43	CG9410 + CG15908	SID104184768	1.51e6	1.58e6	1.28e6	1.40e6	inactive
44	CG9410 + CG15908	SID104184793	1.63e6	1.70e6	1.41e6	1.51e6	inactive
45	CG1663	SID104186405	1.74e6	1.77e6	1.35e6	1.52e6	inactive
46	mbm + CG11555	SID104180107	1.63e6	1.63e6	1.10e6	1.28e6	inactive
47	CG15717	SID104199476	1.90e6	1.80e6	1.17e6	1.27e6	inactive
48	DptA	SID104187196	1.77e6	1.75e6	1.26e6	1.45e6	inactive
49	bys	SID104198540	5.77e5		9.28e5		inactive
50	ssh	SID104196522	1.62e6	1.68e6	9.37e5	1.04e6	inactive
51	CG9449	SID104190865	1.45e6	1.49e6	1.19e6	1.31e6	inactive
52	NimC4	SID104181737	1.49e6	1.50e6	1.27e6	1.39e6	inactive
53	CLS	SID104195434	1.58e6	1.57e6	9.59e5	1.08e6	inactive
54	CG9578	SID104200486	1.56e6	1.49e6	1.07e6	1.23e6	inactive
55	CG40551 (retired record)	SID104201021	1.30e6	1.36e6	1.06e6	1.16e6	inactive
56	T48	SID104196670	1.51e6	1.54e6	1.03e6	1.13e6	inactive
57	CG16753	SID104188281	1.38e6	1.42e6	1.21e6	1.05e6	inactive
58	CG12115	SID104197603	1.71e6	1.70e6	1.09e6	1.25e6	inactive
59	CG7059	SID104195979	1.21e6	1.28e6	1.12e6	1.25e6	inactive
60	GstT2	SID104186036	1.62e6	1.66e6	1.33e6	1.50e6	inactive
61	ppk28	SID104199711	1.46e6	1.42e6	1.04e6	1.07e6	inactive
62	CG7714	SID104196092	1.14e6	1.17e6	1.13e6	1.19e6	inactive
63	stl	SID104184188	1.31e6	1.34e6	1.08e6	1.19e6	inactive
64	dachs	SID104181864	9.86e5	1.22e6	7.67e5	7.36e5	inactive
65	dachs	SID104181983	1.77e6	1.75e6	1.22e6	1.39e6	inactive
66	CG17127	SID104182373	1.57e6	1.56e6	1.16e6	1.26e6	inactive
67	CG34029	SID104183701	5.33e5		8.46e5		inactive
68	Octalpha2R	SID104193111	1.61e6	1.57e6	1.02e6	1.15e6	inactive
69	Octalpha2R	SID104195106	9.17e5	1.11e6	8.38e5	8.74e5	inactive
70	Dhit	SID104187203	1.34e6	1.38e6	1.14e6	1.20e6	inactive
71	CG17994	SID104184669	1.77e6	1.85e6	1.30e6	1.47e6	inactive
72	RpL23	SID104184440	1.10e6	1.17e6	7.25e5	9.05e5	active
73	TrissinR	SID104182126	1.64e6	1.44e6	1.16e6	1.27e6	inactive
74	TrissinR	SID104182127	1.74e6	1.92e6	9.94e5	1.15e6	inactive
75	TrissinR	SID104182128	1.72e6	1.72e6	1.23e6	1.35e6	inactive
